The values below come from paper PMC11127761.

The exact form of at least one protein or probe is not confirmed. For some assays here: Weaker means in comparison with the reference protein, sequence or condition of that experiment.

The target of data set [1] is Neuropeptide Y (NPY) (UniProt P01303). As to the kind of experiment: binding assay. Conditions: 5' thiol C6 (disulfide reduced), 3' amino linker, aCSF pH 7.4 (composition by citation), SWV -0.4 to 0.0 V, 30 Hz, IPA 500 Hz in flow cell, assay temperature not stated, commercial protein, label: 3' methylene blue, immobilized on Pt via 5' thiol, single-stranded DNA.
For data set [2], the system named is Pancreatic polypeptide (PP). In words: electrochemical aptasensor (SWV, steady state). Conditions: 1-1000 pg/mL, no significant difference from NPY; 5' thiol C6 (disulfide reduced), 3' amino linker; aCSF pH 7.4 (composition by citation); SWV -0.4 to 0.0 V, 30 Hz; IPA 500 Hz in flow cell; assay temperature not stated; label: 3' methylene blue, immobilized on Pt via 5' thiol; single-stranded DNA.

A further data set relates to Peptide YY (PYY). In words: electrochemical aptasensor (SWV, steady state). The following applies: 1-1000 pg/mL, response lower than NPY; 5' thiol C6 (disulfide reduced), 3' amino linker; aCSF pH 7.4 (composition by citation); SWV -0.4 to 0.0 V, 30 Hz; IPA 500 Hz in flow cell; assay temperature not stated; label: 3' methylene blue, immobilized on Pt via 5' thiol; single-stranded DNA.

The next data set relates to Somatostatin (SOM). As to the kind of experiment: electrochemical aptasensor (SWV, steady state). Conditions: 1-1000 pg/mL, response lower than NPY; 5' thiol C6 (disulfide reduced), 3' amino linker; aCSF pH 7.4 (composition by citation); SWV -0.4 to 0.0 V, 30 Hz; IPA 500 Hz in flow cell; assay temperature not stated; label: 3' methylene blue, immobilized on Pt via 5' thiol; single-stranded DNA.

For data set [3], the target named is Neuropeptide Y (NPY) (UniProt P01303). In words: electrochemical aptasensor (SWV, steady state). Conditions: 1-1000 pg/mL, lower NPY response than 4.31, no NPY selectivity; 5' thiol C6 (disulfide reduced), 3' amino linker; aCSF pH 7.4 (composition by citation); SWV -0.4 to 0.0 V, 30 Hz; IPA 500 Hz in flow cell; assay temperature not stated; commercial protein; label: 3' methylene blue, immobilized on Pt via 5' thiol; single-stranded DNA.

In the data set with Neuropeptide Y (NPY) [1], “AGCAGCACAGAGGTCAGATGCAAACCACAGCCTGAGTGGTTAGCGTATGTCATTTACGGACCTATGCGTGCTACCGTGAA [Aptamer 4.31]” came in with a Kd of 300 nM. The figures for the binding result (in data set [2]; with Peptide YY (PYY); in the data set on Somatostatin (SOM)) were “binds”, “binds more weakly” and “binds more weakly”, respectively.
“AGCAGCACAGAGGTCAGATGCGTTTTTTACGGCTGGCAACGGAAGTCAGTTTATTCTTCACCTATGCGTGCTACCGTGAA [Aptamer 4.20]”: the Kd in the data set with Neuropeptide Y (NPY) [1] (aptamer list gives 0.8, Results text order (4.31, 4.13, 4.20) implies 1.0) was determined as 800 nM. Besides, the binding result in the data set with Neuropeptide Y (NPY) [3] is recorded as “binds more weakly”.
As for “AGCAGCACAGAGGTCAGATGTGTTAGGCTGGGACACGTATTACACTTACCGTAAATATTTCCTATGCGTGCTACCGTGAA [Aptamer 4.13]”, the dissociation constant (Kd) in the data set with Neuropeptide Y (NPY) [1] (aptamer list gives 1.0, Results text order (4.31, 4.13, 4.20) implies 0.8) was 1000 nM. Also, in the data set with Neuropeptide Y (NPY) [3], the binding result is on record as “binds more weakly”.

As a reminder, the Kd is the free concentration of one partner at which half of the binding sites on the other are occupied at equilibrium, for simple one-to-one binding.
